Assay results taken from publication PMC10933316.

By UniProt entry, the sequences of proteins in these tests, tags left out.
UniProt Q9D4H8: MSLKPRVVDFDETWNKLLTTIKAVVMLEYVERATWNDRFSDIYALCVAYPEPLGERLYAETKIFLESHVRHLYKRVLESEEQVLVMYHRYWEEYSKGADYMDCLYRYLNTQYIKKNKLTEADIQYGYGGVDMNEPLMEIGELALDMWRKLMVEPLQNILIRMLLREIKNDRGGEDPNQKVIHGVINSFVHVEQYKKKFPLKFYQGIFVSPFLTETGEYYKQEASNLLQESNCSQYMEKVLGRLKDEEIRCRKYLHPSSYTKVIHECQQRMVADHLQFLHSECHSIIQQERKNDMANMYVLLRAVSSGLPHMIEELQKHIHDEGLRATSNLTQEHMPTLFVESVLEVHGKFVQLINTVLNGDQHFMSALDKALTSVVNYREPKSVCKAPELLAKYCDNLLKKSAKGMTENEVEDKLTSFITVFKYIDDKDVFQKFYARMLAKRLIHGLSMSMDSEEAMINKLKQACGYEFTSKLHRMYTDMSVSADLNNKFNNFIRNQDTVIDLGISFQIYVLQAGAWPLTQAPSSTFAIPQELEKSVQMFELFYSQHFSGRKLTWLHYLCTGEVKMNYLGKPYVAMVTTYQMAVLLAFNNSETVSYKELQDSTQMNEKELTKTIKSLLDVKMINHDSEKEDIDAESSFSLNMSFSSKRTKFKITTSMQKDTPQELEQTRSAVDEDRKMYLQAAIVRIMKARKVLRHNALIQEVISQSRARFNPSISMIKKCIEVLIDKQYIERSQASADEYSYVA

Assays:
[1] = biological target: T1, H/F-PRAMEL7WT (ESC line) (mouse) (UniProt Q810Y8); test: affinity purification with mass spectrometry; HA-IP (anti-HA magnetic beads, overnight, 4 °C) from MNase-treated extracts (150 mM NaCl) of ESC + H/F-PRAMEL7WT, ESC + H/F-PRAMEL7ΔN and parental ESCs; on-bead tryptic digestion, LC-MS/MS; two independent experiments
T1 sequence: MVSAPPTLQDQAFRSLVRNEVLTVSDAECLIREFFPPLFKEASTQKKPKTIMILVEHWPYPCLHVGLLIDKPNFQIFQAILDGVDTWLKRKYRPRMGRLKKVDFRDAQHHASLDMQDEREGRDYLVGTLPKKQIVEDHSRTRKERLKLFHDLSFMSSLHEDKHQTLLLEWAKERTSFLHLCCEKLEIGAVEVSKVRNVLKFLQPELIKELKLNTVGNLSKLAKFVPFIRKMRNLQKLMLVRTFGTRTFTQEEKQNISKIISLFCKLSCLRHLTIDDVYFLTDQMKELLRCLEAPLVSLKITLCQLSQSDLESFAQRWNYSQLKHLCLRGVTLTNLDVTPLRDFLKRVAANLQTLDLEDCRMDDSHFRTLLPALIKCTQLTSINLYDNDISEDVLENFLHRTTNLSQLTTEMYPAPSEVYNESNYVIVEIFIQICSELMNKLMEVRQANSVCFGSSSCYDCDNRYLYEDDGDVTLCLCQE

[2] = biological target: Cullin2 (CUL2), endogenous in mouse ESCs (mouse (endogenous in ESCs)) (UniProt Q9D4H8); test: affinity purification with mass spectrometry; CUL2-chromatin-IP: DSP-crosslinked, MNase-digested chromatin of ESC + H/F-PRAMEL7WT against parental ESCs, Cullin2 antibody and Dynabeads protein A, LC-MS/MS; fold changes ≥ 3; two independent experiments
[3] = biological target: T2, H/F-PRAMEL7ΔN (ESC line) (mouse) (UniProt Q810Y8); test: affinity purification with mass spectrometry; HA-IP (anti-HA magnetic beads, overnight, 4 °C) from MNase-treated extracts (150 mM NaCl) of ESC + H/F-PRAMEL7WT, ESC + H/F-PRAMEL7ΔN and parental ESCs; on-bead tryptic digestion, LC-MS/MS; two independent experiments
T2 sequence: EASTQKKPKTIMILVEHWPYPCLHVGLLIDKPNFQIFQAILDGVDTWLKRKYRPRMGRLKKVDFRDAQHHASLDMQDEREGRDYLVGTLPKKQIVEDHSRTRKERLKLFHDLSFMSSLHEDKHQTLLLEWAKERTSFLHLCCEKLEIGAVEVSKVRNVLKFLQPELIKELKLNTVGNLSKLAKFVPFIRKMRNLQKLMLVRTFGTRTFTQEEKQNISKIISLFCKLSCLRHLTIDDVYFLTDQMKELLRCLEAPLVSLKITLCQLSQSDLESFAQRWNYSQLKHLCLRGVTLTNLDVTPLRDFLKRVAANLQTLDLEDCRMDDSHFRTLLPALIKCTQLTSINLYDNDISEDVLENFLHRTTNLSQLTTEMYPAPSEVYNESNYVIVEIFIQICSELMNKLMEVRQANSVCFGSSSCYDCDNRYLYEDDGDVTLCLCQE

Molecule: Cullin2 (CUL2), endogenous in mouse ESCs (from UniProt Q9D4H8 1-745)
- binding [1]: binds

B1: SND1 (protein, UniProt Q78PY7 1-910)
chain: MASSAQSSGSSGGPAVPTVQRGIVKMVLSGCAIIVRGQPRGGPPPERQINLSNIRAGNLARRAAATQPDGKDTPDEPWAFPAREFLRKKLIGKEVCFTIENKTPQGREYGMIYLGKDTNGENIAESLVAEGLATRREGMRANNPEQNRLSECEEQAKASKKGMWSEGNGSHTIRDLKYTIENPRHFVDSHHQKPVNAIIEHVRDGSVVRALLLPGHHLVTVMLSGIKCPTFRRETDGSETPEPFAAEAKFFTESRLLQRDVQIILESCHNQNLLGTILHPNGNITELLLKEGFARCVDWSIAVYTRGAEKLRAAERFAKERRLRIWRDYVPPTANLDQKDKQFVAKVMQVLNADAIVVKLNSGDYKTIHLSSIRPPRLEGDNIQDKNKKLRPLYDIPYMFEAREFLRKKLIGKKVNVTVDYIRPASPATETVPAFSERTCATVTIGGINIAEALVSKGLATVIRYRQDDDQRSSHYDELLAAEARAIKNGKGLHSKKEVPIHRVADISGDTQKAKQFLPFLQRAGRSEAVVEYVFSGSRLKLYLPKETCLITFLLAGIECPRGARNLPGLVQEGEPFSEEATLFTKELVLQREVEVEVESMDKAGNFIGWLHMDGANLSVLLVEQALSKVHFTAERSAYYKPLLSAEEAAKQRKEKVWAHYEERPVEEVMPVLEEKERSASYKPVFVTEITDDLHFYVQDVETGTQLEKLMENMRNDISSHPPVEGSYAPRRGEFCIAKFVDGEWYRARVEKVESPAKVHVFYIDYGNREILPSTRLGTLPPAFSTRVLPAQATEYAFAFIQVPQDEDARTDAVDSVVRDIQNTQCLLNVEHLSASCPHVTLQFADSKGDVGLGLVKEGLVMVEVRKEKQFQKVITEYLNAQESAKSARLNLWRYGDFRADDADEFGYSR
- binding [2]: binds
- binding [3]: binds

B2: UHRF1 (protein, UniProt Q8VDF2 1-782)
chain: MWIQVRTMDGKETHTVNSLSRLTKVQELRKKIEEVFHVEPQLQRLFYRGKQMEDGHTLFDYDVRLNDTIQLLVRQSLALPLSTKERDSELSDSDSGYGVGHSESDKSSTHGEGAAEADDKTVWEDTDLGLYKVNEYVDVRDNIFGAWFEAQVVQVQKRALSEDEPCSSSAVKTSEDDIMYHVKYDDYPEHGVDIVKAKNVRARARTVIPWENLEVGQVVMANYNVDYPRKRGFWYDVEICRKRQTRTARELYGNIRLLNDSQLNNCRIMFVDEVLMIELPKERRPLIASPSQPPPALRNTGKSGPSCRFCKDDENKPCRKCACHVCGGREAPEKQLLCDECDMAFHLYCLKPPLTSVPPEPEWYCPSCRTDSSEVVQAGEKLKESKKKAKMASATSSSRRDWGKGMACVGRTTECTIVPANHFGPIPGVPVGTMWRFRVQVSESGVHRPHVAGIHGRSNDGAYSLVLAGGYEDDVDNGNYFTYTGSGGRDLSGNKRTAGQSSDQKLTNNNRALALNCHSPINEKGAEAEDWRQGKPVRVVRNMKGGKHSKYAPAEGNRYDGIYKVVKYWPERGKSGFLVWRYLLRRDDTEPEPWTREGKDRTRQLGLTMQYPEGYLEALANKEKSRKRPAKALEQGPSSSKTGKSKQKSTGPTLSSPRASKKSKLEPYTLSEQQANLIKEDKGNAKLWDDVLTSLQDGPYQIFLSKVKEAFQCICCQELVFRPVTTVCQHNVCKDCLDRSFRAQVFSCPACRFELDHSSPTRVNQPLQTILNQLFPGYGSGR
- binding [2]: binds
- binding [3]: binds

These are yes or no findings as the source states them, for the method shown. In cells and extracts the contact can be indirect. Here binding means that the protein was enriched with, or labelled near, the bait; the list need not be complete.
